# The other results are listed elsewhere or left out. Values are worked out from sequencing counts and are noisy.
# T1: Homer1 EVH1 domain
# T1 chain: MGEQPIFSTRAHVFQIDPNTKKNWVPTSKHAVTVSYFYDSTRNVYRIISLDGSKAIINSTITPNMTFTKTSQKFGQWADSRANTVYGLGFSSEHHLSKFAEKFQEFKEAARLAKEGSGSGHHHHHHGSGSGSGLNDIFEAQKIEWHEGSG
# Target: T1, Homer1 EVH1 domain
# Assay: enrichment score (AUC of log2 frequency ratio across FACS sorting rounds) (log2 AUC); higher = stronger enrichment for Homer1 EVH1 binding
row,Binder,enrichment score
1,MSSDFPHYNFRMPNIGFQNLPLNIYIVVFVLLFLSS,2.96
2,PAMCLLIYLYSLVKWYFIITIVIFVLQERIFGGLEI,0.43
3,PQNGLKIRPFMKAHLNRDKDKELLKLTQYLKEIAKL,1.23
4,YLGDRYNRKYLMCGGIAFWSLVTLGSSFIPGEHFWL,-0.49
5,HADVLACLLFLLAFLSYNRSLDQGCVGGSFPSTVSP,3.99
6,MPGQNYRTISEFILSGFSAFPQQLLPVLFLLYLLMF,3.15
7,LKDPSRAIPLGTIVAVAYTFFVYLLLFFLSSFTCDR,5.64
8,TQNTDVYPGLAVFFQNALIFFSTLIYKFGRTEELWT,-2.14
9,SNDSDTVRSLKPWSQGTFSDQQWETLQHIFRVYRSS,-0.574
10,TVPPPPAALAVFSAALLLEVLSLAVSIRMVFFLEDV,-1.08
11,RRHIQKMQKNATGFWNPQTEAHVGAMKLMVYFLILY,-0.596
12,QQTLPNSHLTEEALKVSIVPGPGDQKTGIPSAPSSF,1.69
